Whole data set: some 33,000 sequences, median “E-score (-0.5 to 0.5)” near -0.016, cut for the highest 2% near 0.3. This is one part of the list.
The sequences below were run against T1, Yer184c (UniProt P39961) (assay: PBM E-score (8-mer binding enrichment) (E-score (-0.5 to 0.5)); higher = stronger / more preferred TF binding). Settings: protein concentration: 100 nM; construct: GST-full length.
T1 sequence: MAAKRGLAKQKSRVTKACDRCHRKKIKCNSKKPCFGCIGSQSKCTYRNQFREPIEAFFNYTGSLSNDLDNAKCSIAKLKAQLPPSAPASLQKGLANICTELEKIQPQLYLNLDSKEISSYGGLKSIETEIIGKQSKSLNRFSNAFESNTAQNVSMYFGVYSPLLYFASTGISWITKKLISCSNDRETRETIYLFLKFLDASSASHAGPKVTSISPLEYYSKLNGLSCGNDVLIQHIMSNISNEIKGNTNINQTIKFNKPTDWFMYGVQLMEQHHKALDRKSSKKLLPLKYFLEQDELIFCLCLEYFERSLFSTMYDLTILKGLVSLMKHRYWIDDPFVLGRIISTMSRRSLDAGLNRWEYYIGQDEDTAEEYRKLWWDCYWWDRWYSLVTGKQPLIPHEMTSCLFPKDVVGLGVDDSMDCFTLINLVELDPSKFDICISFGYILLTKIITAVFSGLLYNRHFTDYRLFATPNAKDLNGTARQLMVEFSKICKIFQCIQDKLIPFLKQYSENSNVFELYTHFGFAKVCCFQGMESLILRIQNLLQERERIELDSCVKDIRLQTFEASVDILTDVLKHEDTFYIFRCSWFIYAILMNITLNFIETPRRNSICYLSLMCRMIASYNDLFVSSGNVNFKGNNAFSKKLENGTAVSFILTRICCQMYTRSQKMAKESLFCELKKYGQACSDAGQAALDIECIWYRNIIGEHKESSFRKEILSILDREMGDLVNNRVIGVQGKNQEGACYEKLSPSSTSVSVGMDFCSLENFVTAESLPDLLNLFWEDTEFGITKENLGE
Procedure, shortened: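 For each ungapped eight-base word taken together with its reverse complement, the Universal PBM Analysis Suite assigned an E-score. Binding data came from GST-tagged yeast transcription factors, applied at about 100-200 nM, on universal all-10-mer Agilent arrays made double-stranded by primer extension. Fluorescent anti-GST marked bound protein, and scans were normalised with masliner.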

| Sequence | PBM E-score |
| --- | --- |
| CCTGGAAA | 0.00157 |
| CCGCAATC | 0.048 |
| AGAGTCTC | -0.247 |
| CCTTAACA | -0.128 |
| AGGGGATA | -0.27 |
| ATTTAGTG | 0.193 |
| ATGATATA | 0.0663 |
| CTACTCCC | -0.0431 |
| AGGTGTAT | -0.079 |
| ATAGCACA | 0.0125 |
| ACGGTTAC | 0.122 |
| CGTAAACG | 0.0568 |
| CTTGGGAC | -0.112 |
| ATACAAAT | 0.216 |
| TAATAGCA | -0.0153 |
| AGACGAAT | 0.078 |
| ATTTCTTA | 0.216 |
| GCCCCCGA | -0.295 |
| ACTGTTGG | -0.178 |
| CGATGAAG | 0.0793 |
| ATCTTCCG | 0.289 |
| ACCGATCT | 0.0299 |
| AAGCATCG | 0.121 |
| CTACTAGA | -0.0965 |
| CCCTTTAG | -0.347 |

| Sequence | PBM E-score |
| --- | --- |
| AAGACGAA | 0.0744 |
| ATCTCTCC | -0.157 |
| TAATGCAA | -0.0977 |
| CTAACCAG | -0.0926 |
| CAAATATG | 0.195 |
| GCCAACGC | 0.0508 |
| GATCAATC | 0.0671 |
| AAACAGGA | -0.0365 |
| CAGCGCTG | 0.129 |
| CCGTAGGA | -0.0893 |
| ACCGTTTC | 0.116 |
| CTACCGTA | -0.0102 |
| AAGTCTGT | -0.0608 |
| GACCGCCC | -0.0546 |
| CGGGTTGC | 0.118 |
| ATACGAAG | 0.146 |
| AAATAAAC | 0.179 |
| CCGACAGC | -0.0471 |
| GGACGGCA | 0.0615 |
| CGGATCGC | 0.208 |
| GTGTGACA | -0.19 |
| CCATTTTA | 0.148 |
| GGAAGGCA | -0.0597 |
| AATGCGCC | 0.0748 |
| CGTGGCCA | -0.31 |

2 neighbouring entries out of the list so far:

| Sequence | PBM E-score |
| --- | --- |
| GACCGCCC | -0.0546 |
| CGGGTTGC | 0.118 |

Next part.

| Sequence | PBM E-score |
| --- | --- |
| AACTTTCT | 0.0945 |
| ATTTCTCC | 0.122 |
| ATAGTAGC | 0.108 |
| ATCGCCGC | 0.206 |
| GTCCGCGA | 0.08 |
| AAGGTGCC | -0.0528 |
| GTTGATAA | 0.214 |
| GGCCTCCA | -0.0306 |
| ACGGCTTC | 0.0891 |
| GAGAATGA | 0.13 |
| CGACCACG | 0.0622 |
| CTGCAGCC | -0.0492 |
| AAGCTGAA | 0.109 |
| GGAGCACC | -0.178 |
| ATCGAGTG | 0.122 |
| ACTTGCCG | 0.142 |
| AGTATGGC | -0.156 |
| CTGACAAC | 0.00442 |
| ATCAGGAC | 0.0761 |
| AGGTTTCG | -0.105 |
| CACCGGGG | -0.116 |
| GATACTGC | -0.0078 |
| ATCTGAAA | 0.155 |
| AGACGTCC | -0.0912 |
| CCCTGTAG | -0.187 |

| Sequence | PBM E-score |
| --- | --- |
| CGGTGGGA | -0.035 |
| CCCACAAC | -0.0821 |
| ATAGGCCA | -0.065 |
| CACTCGCA | -0.104 |
| AAAACTCT | 0.0438 |
| ATTCACTG | -0.0733 |
| AGCGTGCA | 0.0446 |
| CTAATGGC | -0.0994 |
| GCTGCTTA | 0.0261 |
| GACTAACC | 0.0069 |
| ACATAGTG | -0.0527 |
| CCGTTTTA | 0.156 |
| CCAATTGG | 0.041 |
| CGCTCGAA | 0.0413 |
| GACAAGTA | -0.0032 |
| ACAAACCG | 0.201 |
| AGAGCTTC | -0.0227 |
| AAACCACA | -0.17 |
| AGGTCCTG | -0.162 |
| ACGAAACG | 0.0839 |
| CACTCAAC | 0.0203 |
| GGTGGATA | 0.00341 |
| TAGATAAA | 0.195 |
| GTATCGTA | -0.0244 |
| GCCTACGA | -0.0383 |

| Sequence | PBM E-score |
| --- | --- |
| ACCACGCC | 0.0179 |
| TCGACCGA | 0.233 |
| CGGCCCGA | 0.28 |
| CAACCCCC | -0.294 |
| CGAATAAG | -0.0727 |
| CAACACGA | 0.0672 |
| CAAGTCCA | -0.213 |
| AACGCAAG | 0.0455 |
| CAATTGGA | -0.0522 |
| ATGGTTTC | 0.0728 |
| ACCGGGCG | 0.0765 |
| ATGCTAGC | 0.123 |
| AGTACTGA | 0.14 |
| AATCAGTC | 0.0555 |
| CAGACCGC | 0.0654 |
| ACTATCAG | -0.12 |
| CCAAAAAC | 0.177 |
| AGATCTCG | 0.0488 |
| CACATTCA | -0.143 |
| AAGCAAGA | -0.0309 |
| ACCATTGA | -0.0656 |
| CTTATAGA | 0.0118 |
| GACAATCC | 0.16 |
| TAAGTCAA | -0.176 |
| GAGGTCCA | -0.0521 |

| Sequence | PBM E-score |
| --- | --- |
| CAAACTGG | -0.133 |
| ACGGGGAT | 0.0139 |
| GCAGTAGC | -0.22 |
| AACGAATA | -0.0323 |
| CACCCTCG | -0.032 |
| AGGCAATA | -0.168 |
| TTGGAAAA | 0.134 |
| CTTGGGTC | -0.164 |
| AGCTGTTG | 0.0365 |
| TCGAGTAA | 0.121 |
| AGGCGCCT | -0.0385 |
| ATGAGAAG | -0.126 |
| ACGCGAGC | 0.0852 |
| AGGAGAAG | -0.155 |
| AGCCATTC | -0.0813 |
| CTTGTCAA | 0.184 |
| AATAATAT | 0.333 |
| AGTACGAC | -0.0734 |
| CACGTGTA | -0.149 |
| CCACATGG | -0.195 |
| GACATCTA | 0.191 |
| AAGTCTGA | -0.303 |
| CGAGGCCG | -0.0804 |
| CTAGGGAC | -0.198 |
| CAGCCATA | -0.165 |

| Sequence | PBM E-score |
| --- | --- |
| CACAGAAC | -0.13 |
| GTGTCTCA | -0.0779 |
| AGCTTCGC | -0.141 |
| TATTGTGA | -0.01 |
| CGTCCTAG | -0.125 |
| AAAGACTA | 0.0369 |
| ATCTAATA | 0.137 |
| CCCCATCA | -0.217 |
| CAGCTATC | -0.132 |
| ACTAGACA | 0.112 |
| CGTAGATC | 0.0355 |
| ATCCCCAT | -0.0983 |
| ATGTATGC | 0.0572 |
| CCGTACGC | -0.131 |
| CAAGGGAG | -0.00665 |
| GCGGGAGC | -0.093 |
| AAGCCGGT | 0.258 |
| CCCCCCGC | -0.405 |
| GGCAGGCC | -0.00201 |
| GCTGTGCA | -0.166 |
| CAAAGGTG | -0.203 |
| GGCCAGCA | -0.189 |
| CCAGGTTC | -0.199 |
| AATCCTAT | 0.18 |
| CCCAATCC | -0.211 |

| Sequence | PBM E-score |
| --- | --- |
| CCATCAGC | -0.0914 |
| GGAGACAA | 0.0634 |
| CTTTCCTC | -0.0252 |
| GCGACCCA | -0.17 |
| AGAGGATA | -0.0702 |
| ATGATCCG | 0.235 |
| AGTGGTAC | -0.133 |
| CCTGCCAG | -0.171 |
| ACGTTCCG | 0.0307 |
| GTTCCGGA | 0.438 |
| AAAACGAC | 0.0469 |
| ATGCAGCG | -0.0795 |
| AGAATAGG | 0.0218 |
| AATCAGAT | 0.152 |
| AAGTCGGA | 0.154 |
| TGCCGCCA | 0.116 |
| GAAGGAAC | -0.0358 |
| AACTAGAC | 0.175 |
| CGTATACG | 0.0942 |
| AGCTCGAG | -0.0838 |
| ATCAGGCC | -0.126 |
| GAATTTCC | 0.134 |
| GAGCGCAC | -0.133 |
| GTCATATA | 0.148 |
| CGGAAGAG | 0.0611 |

4 entries picked at random from the list so far, as already listed:

| Sequence | PBM E-score |
| --- | --- |
| ATCCCCAT | -0.0983 |
| CGCTCGAA | 0.0413 |
| AGGCGCCT | -0.0385 |
| ATCTTCCG | 0.289 |

Later entries:

| Sequence | PBM E-score |
| --- | --- |
| GGATATGA | 0.0918 |
| AAAAATAC | 0.0858 |
| ACAAACTC | 0.11 |
| ACCTACGG | -0.233 |
| CTCTCGAA | -0.145 |
| GTGAACTA | 0.0334 |
| CACTCGAA | 0.0255 |
| AGTAGTGA | 0.0458 |
| AGAGGGAT | -0.346 |
| CTCTACCA | -0.259 |
| AGGGAGGG | -0.194 |
| GGCTATCA | 0.131 |
| GCGGACAA | 0.298 |
| AGTATGCA | -0.0246 |
| AAGAGTTG | -0.0223 |
| CAGAGGCG | -0.23 |
| AAGTGAAT | 0.194 |
| CAGTCTTC | -0.152 |
| TAGTTACA | 0.00595 |
